Laboratory results reported in PMC8834516.
No constants are given. Whether binding was seen depends on the method and setting. Binding seen in cells or lysates may run through a third protein. Here binding means that the protein was enriched with, or labelled near, the bait; the list need not be complete.

By UniProt entry, the sequences of proteins in these tests, tags left out.
UniProt Q80TJ1: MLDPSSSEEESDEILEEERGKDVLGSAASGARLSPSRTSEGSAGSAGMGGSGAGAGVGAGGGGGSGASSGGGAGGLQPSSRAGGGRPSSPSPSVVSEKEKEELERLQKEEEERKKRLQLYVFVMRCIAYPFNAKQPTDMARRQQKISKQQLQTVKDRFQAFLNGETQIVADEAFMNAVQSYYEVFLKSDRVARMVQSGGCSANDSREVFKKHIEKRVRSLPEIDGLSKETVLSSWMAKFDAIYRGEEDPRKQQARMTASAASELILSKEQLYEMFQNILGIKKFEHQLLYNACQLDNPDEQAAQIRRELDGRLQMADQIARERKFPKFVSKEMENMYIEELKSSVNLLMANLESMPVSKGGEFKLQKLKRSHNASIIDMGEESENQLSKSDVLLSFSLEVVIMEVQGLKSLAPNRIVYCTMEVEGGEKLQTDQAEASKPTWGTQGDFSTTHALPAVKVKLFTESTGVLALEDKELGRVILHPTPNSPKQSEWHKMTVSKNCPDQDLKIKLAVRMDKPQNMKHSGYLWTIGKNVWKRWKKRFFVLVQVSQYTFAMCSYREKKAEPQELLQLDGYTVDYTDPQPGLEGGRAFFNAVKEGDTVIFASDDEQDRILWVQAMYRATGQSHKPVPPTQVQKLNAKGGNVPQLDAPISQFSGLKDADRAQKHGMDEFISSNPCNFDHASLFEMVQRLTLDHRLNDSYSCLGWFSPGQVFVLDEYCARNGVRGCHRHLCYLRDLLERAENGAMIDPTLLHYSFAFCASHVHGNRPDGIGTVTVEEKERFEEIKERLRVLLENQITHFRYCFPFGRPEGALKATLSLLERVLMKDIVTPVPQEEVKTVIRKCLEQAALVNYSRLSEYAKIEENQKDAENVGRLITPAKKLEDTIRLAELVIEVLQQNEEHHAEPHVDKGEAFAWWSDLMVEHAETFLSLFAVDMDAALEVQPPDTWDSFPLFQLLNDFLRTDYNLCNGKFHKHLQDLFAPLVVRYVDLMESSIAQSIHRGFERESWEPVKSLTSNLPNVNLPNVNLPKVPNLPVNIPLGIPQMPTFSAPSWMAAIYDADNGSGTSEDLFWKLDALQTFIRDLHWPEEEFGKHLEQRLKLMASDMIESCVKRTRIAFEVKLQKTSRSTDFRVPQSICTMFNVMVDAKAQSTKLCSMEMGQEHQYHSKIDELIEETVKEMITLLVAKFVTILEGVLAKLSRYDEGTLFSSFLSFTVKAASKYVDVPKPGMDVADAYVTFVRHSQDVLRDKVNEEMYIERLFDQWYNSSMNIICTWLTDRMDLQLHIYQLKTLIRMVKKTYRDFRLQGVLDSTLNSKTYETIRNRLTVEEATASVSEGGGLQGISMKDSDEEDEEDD
UniProt A2AGT5: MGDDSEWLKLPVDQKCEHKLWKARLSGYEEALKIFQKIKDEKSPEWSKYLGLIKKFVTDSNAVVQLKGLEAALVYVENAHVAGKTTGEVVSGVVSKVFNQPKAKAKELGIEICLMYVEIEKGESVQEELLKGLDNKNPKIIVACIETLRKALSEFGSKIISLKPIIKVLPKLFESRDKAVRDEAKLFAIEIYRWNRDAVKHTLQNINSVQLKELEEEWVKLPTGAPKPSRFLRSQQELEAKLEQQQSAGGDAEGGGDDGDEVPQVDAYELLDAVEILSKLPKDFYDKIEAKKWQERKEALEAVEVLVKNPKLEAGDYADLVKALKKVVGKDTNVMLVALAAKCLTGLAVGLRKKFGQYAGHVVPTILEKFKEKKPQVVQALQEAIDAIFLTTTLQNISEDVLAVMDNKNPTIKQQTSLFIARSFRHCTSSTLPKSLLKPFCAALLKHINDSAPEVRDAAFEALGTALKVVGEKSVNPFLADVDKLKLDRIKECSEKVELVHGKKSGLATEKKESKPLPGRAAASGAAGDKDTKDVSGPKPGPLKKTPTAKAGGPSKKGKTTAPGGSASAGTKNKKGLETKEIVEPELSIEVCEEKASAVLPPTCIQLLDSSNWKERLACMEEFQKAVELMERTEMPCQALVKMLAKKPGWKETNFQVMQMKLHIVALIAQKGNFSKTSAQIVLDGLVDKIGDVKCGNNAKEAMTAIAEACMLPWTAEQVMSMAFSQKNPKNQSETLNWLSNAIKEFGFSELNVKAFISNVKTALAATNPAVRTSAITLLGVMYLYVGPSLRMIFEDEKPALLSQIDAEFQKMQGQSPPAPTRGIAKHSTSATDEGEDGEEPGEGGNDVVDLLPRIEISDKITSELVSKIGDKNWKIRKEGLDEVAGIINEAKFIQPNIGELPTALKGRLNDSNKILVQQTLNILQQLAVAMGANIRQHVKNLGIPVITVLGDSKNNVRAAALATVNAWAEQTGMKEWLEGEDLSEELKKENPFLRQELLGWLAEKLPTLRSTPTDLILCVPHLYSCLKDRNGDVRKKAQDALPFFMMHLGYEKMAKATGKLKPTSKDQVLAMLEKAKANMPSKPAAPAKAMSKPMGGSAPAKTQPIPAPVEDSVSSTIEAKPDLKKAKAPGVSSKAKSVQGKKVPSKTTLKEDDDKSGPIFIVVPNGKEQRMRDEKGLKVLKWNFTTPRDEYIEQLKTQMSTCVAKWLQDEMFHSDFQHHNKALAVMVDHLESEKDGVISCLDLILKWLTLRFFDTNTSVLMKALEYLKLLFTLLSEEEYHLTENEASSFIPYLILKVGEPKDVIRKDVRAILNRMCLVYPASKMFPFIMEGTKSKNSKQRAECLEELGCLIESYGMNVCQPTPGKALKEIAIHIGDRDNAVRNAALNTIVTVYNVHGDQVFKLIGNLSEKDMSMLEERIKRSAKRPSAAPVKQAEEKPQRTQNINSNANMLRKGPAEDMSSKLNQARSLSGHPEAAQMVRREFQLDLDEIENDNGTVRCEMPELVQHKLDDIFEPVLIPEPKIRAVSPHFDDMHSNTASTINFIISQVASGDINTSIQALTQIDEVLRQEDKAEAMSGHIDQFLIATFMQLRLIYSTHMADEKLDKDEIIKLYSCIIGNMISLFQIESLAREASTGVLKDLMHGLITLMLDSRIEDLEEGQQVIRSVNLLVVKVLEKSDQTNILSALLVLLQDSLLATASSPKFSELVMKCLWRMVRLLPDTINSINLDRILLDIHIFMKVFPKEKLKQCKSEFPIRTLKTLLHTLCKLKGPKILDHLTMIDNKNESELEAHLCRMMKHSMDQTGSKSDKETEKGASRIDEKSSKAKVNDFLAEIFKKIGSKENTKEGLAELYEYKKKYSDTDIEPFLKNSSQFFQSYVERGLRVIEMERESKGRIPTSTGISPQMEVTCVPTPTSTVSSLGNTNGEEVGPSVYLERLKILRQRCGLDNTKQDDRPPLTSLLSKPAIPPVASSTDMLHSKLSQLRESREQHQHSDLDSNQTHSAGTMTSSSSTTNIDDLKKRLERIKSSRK
UniProt Q921J2: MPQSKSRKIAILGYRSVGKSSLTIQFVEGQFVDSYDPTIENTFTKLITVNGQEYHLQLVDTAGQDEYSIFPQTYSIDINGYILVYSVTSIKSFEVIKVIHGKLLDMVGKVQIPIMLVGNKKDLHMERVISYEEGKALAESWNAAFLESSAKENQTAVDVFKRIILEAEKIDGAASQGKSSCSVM
UniProt P08752: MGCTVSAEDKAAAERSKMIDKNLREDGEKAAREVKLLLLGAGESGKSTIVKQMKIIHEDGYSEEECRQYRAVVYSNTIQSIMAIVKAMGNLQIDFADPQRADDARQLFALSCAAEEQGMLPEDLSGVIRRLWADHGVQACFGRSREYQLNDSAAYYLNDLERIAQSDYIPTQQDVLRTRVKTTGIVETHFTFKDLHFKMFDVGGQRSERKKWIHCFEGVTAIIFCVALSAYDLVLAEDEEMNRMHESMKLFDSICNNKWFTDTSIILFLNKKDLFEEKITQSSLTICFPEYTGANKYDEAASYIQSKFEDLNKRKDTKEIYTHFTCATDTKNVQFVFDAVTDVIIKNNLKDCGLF
UniProt Q63844: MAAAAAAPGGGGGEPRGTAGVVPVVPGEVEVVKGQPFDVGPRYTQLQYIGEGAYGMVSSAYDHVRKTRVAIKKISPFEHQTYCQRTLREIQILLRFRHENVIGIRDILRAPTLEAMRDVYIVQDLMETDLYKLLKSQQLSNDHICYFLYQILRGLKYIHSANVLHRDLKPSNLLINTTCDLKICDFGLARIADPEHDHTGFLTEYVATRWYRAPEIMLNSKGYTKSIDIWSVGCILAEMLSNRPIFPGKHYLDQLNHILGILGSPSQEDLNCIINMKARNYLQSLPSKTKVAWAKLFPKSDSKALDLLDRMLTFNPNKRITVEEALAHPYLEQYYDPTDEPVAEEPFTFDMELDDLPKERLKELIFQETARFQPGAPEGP
UniProt P04370: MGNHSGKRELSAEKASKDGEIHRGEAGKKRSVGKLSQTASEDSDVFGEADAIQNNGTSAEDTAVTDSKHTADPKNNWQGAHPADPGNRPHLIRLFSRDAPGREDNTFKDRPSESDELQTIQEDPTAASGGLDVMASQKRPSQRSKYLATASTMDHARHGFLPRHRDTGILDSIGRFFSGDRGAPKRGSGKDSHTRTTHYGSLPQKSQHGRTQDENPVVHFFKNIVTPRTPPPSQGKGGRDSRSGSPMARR
UniProt O88704: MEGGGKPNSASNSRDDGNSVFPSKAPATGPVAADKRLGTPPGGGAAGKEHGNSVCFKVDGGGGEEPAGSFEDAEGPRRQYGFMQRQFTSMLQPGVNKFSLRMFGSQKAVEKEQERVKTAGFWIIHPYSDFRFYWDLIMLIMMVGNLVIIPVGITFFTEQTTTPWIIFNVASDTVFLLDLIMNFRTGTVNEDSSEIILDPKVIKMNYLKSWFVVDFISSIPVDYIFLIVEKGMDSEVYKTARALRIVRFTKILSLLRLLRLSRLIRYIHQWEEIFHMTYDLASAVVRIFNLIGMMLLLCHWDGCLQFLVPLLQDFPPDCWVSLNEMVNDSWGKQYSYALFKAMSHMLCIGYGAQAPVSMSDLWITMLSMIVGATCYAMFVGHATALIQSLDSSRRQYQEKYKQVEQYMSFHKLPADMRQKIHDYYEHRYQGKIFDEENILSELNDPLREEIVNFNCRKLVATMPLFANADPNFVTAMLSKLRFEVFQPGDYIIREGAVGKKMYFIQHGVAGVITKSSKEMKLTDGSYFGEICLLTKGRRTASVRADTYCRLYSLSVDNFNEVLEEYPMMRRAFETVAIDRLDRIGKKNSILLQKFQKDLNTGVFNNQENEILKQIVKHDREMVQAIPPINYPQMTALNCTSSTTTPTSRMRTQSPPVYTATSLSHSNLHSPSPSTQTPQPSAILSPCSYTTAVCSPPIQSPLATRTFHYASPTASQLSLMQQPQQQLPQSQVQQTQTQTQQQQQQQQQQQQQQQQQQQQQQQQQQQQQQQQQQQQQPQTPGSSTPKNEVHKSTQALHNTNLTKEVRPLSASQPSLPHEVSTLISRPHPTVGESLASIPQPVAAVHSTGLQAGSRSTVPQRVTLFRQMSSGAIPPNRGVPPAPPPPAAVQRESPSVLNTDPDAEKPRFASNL
UniProt Q62433: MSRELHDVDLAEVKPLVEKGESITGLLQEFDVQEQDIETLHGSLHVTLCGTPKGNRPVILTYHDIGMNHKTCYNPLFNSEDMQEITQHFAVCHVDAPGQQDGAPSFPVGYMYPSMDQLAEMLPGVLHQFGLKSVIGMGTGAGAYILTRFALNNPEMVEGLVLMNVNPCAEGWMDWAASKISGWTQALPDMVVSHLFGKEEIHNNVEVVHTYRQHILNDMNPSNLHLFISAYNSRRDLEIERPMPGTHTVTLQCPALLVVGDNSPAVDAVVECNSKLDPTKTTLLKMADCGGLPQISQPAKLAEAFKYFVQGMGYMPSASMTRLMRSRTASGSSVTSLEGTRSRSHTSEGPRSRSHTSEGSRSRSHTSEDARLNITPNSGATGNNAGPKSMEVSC
UniProt P14231: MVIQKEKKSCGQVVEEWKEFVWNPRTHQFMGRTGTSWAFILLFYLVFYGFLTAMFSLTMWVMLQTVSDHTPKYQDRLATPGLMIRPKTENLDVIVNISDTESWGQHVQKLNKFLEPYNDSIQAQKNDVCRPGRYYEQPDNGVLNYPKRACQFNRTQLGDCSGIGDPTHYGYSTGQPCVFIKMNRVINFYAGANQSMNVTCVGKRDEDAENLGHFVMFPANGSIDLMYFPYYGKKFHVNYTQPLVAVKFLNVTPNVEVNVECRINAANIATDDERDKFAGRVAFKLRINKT
UniProt P60879: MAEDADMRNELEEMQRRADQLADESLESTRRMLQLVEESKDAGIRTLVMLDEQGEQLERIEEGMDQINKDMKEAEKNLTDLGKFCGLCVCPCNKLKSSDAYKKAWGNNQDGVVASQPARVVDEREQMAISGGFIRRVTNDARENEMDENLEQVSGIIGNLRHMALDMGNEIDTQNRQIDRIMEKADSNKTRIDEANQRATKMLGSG
UniProt Q9R0P9: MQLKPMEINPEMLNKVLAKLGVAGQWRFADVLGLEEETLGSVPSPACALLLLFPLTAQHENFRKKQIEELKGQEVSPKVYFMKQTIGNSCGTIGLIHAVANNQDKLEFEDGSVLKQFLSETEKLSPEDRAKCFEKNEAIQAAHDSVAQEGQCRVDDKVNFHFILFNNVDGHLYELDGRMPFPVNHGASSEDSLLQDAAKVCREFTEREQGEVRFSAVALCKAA

target: T1, Transglutaminase-2 (mouse (endogenous in mouse brain)) (UniProt P21981); assay: affinity purification with mass spectrometry; TG2 immunoprecipitated from total brain homogenates of 18-month-old WT and APP23 mice with anti-TG2 antibody IA12 crosslinked to protein A/G magnetic beads, 22 h at 4 °C; IP lysis buffer 25 mM Tris pH 7.4, 150 mM NaCl, 1 mM EDTA, 1% NP40, 5% glycerol; on-bead trypsin digest, SWATH MS; TG2−/− cohorts as background, z-test p ≤ 0.05, n = 5 per cohort
T1 sequence: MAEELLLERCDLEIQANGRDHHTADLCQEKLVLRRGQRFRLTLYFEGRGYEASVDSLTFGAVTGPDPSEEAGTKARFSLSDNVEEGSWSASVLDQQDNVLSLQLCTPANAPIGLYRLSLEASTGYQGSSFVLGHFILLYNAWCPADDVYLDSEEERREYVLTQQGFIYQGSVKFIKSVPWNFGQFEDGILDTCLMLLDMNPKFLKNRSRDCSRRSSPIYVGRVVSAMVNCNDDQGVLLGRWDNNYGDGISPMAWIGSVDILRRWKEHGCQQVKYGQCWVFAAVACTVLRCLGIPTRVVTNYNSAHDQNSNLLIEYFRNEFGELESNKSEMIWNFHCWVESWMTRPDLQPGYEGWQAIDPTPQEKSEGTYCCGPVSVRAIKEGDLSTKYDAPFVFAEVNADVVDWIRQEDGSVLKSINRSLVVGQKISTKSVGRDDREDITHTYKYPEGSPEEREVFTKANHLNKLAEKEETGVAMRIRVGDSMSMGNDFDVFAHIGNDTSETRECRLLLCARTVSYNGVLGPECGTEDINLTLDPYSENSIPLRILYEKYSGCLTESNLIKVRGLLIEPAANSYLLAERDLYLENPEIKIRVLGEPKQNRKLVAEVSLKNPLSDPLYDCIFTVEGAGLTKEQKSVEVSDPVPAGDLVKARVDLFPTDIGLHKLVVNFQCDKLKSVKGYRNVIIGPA

binding, binds:
14-3-3 protein eta (from UniProt P68510 1-246)
ATP synthase subunit alpha, mitochondrial (from UniProt Q03265 44-553)
Adenylyl cyclase-associated protein 2 (from UniProt Q9CYT6 1-476)
Aldose reductase (from UniProt P45376 1-316)
Ankyrin-1 (from UniProt Q02357 1-1862)
Annexin A5 (from UniProt P48036 1-319)
Band 4.1-like protein 1 (from UniProt Q9Z2H5 1-879)
Band 4.1-like protein 3 (from UniProt Q9WV92 1-929)
Beta-adrenergic receptor kinase 1 (from UniProt Q99MK8 1-689)
Beta-hexosaminidase subunit beta (from UniProt P20060 32-536)
Brevican core protein (from UniProt Q61361 23-883)
Calcium-dependent secretion activator 1 (from UniProt Q80TJ1 1-1355)
Carbonic anhydrase 2 (from UniProt P00920 1-260)
Complement factor H (from UniProt P06909 19-1234)
Coronin-1C (from UniProt Q9WUM4 1-474)
Creatine kinase B-type (from UniProt Q04447 1-381)
Cullin-5 (from UniProt Q9D5V5 1-780)
Cyclin-dependent-like kinase 5 (from UniProt P49615 1-292)
Cytoskeleton-associated protein 5 (from UniProt A2AGT5 1-2032)
Disheveled-associated activator of morphogenesis 1 (from UniProt Q8BPM0 1-1077)
Endoplasmin (from UniProt P08113 22-802)
Fatty acid synthase (from UniProt P19096 1-2504)
GTP-binding protein Rheb (from UniProt Q921J2 1-184)
Gamma-enolase (from UniProt P17183 1-434)
Glutamine synthetase (from UniProt P15105 1-373)
Guanine nucleotide-binding protein G(i) subunit alpha-2 (from UniProt P08752 1-355)
Guanine nucleotide-binding protein G(z) subunit alpha (from UniProt O70443 1-355)
Heat shock-related 70 kDa protein 2 (from UniProt P17156 1-633)
Inositol 1,4,5-trisphosphate receptor type 1 (from UniProt P11881 1-2749)
Metabotropic glutamate receptor 3 (from UniProt Q9QYS2 23-879)
Mitogen-activated protein kinase 3 (from UniProt Q63844 1-380)
Myelin basic protein (from UniProt P04370 1-250)
Myosin-10 (from UniProt Q61879 1-1976)
Neural cell adhesion molecule L1 (from UniProt P11627 20-1260)
Neurexin-1 (from UniProt Q9CS84 31-1514)
Neurexin-2 (from UniProt E9Q7X7 29-1710)
Neuronal cell adhesion molecule (from UniProt Q810U4 30-1256)
Plasma membrane calcium-transporting ATPase 1 (from UniProt G5E829 1-1220)
Plexin-B2 (from UniProt B2RXS4 20-1842)
Potassium/sodium hyperpolarization-activated cyclic nucleotide-gated channel 1 (from UniProt O88704 1-910)
Prolow-density lipoprotein receptor-related protein 1 (from UniProt Q91ZX7 20-4545)
Protein NDRG1 (from UniProt Q62433 1-394)
Protein disulfide-isomerase A3 (from UniProt P27773 25-505)
Protein enabled homolog (from UniProt Q03173 1-802)
Protein kinase C beta type (from UniProt P68404 1-671)
Protein kinase C gamma type (from UniProt P63318 1-697)
S-adenosylhomocysteine hydrolase-like protein 1 (from UniProt Q80SW1 1-530)
Serine/threonine-protein phosphatase 2B catalytic subunit alpha isoform (from UniProt P63328 1-521)
Serum albumin (from UniProt P07724 25-608)
Sodium/potassium-transporting ATPase subunit beta-2 (from UniProt P14231 1-290)
Spectrin alpha chain, non-erythrocytic 1 (from UniProt P16546 1-2472)
Src substrate cortactin (from UniProt Q60598 1-546)
Synaptosomal-associated protein 25 (from UniProt P60879 1-206)
Synaptotagmin-1 (from UniProt P46096 1-421)
Synaptotagmin-2 (from UniProt P46097 1-422)
Telomere-associated protein RIF1 (from UniProt Q6PR54 1-2419)
Traf2 and NCK-interacting protein kinase (from UniProt P83510 1-1323)
Type 1 phosphatidylinositol 4,5-bisphosphate 4-phosphatase (from UniProt Q3TWL2 1-284)
Ubiquitin carboxyl-terminal hydrolase isozyme L1 (from UniProt Q9R0P9 1-223)
V-type proton ATPase catalytic subunit A (from UniProt P50516 1-617)
Vinculin (from UniProt Q64727 1-1066)
Voltage-dependent calcium channel subunit alpha-2/delta-2 (from UniProt Q6PHS9 19-1154)
[Protein ADP-ribosylarginine] hydrolase (from UniProt P54923 1-362)
beta-tubulin (mouse (endogenous in mouse brain))
